In PubChem BioAssay AID540256 (National Center for Advancing Translational Sciences (NCATS), 2011):
Screen size: about 300,000 compounds; about 3,700 (1.2%) were called active. Inconclusive means that the source gave no clear call. Such entries were picked first, then a sample of the others. The call rests on the fitted dose curve; tested in HEK293 cells. A potency beside an inconclusive call is a rough fit, not a confirmed value.

Experiment: qHTS for Inhibitors of binding or entry into cells for Lassa Virus; further: nearly all actives have a fitted effect of over 50% in size
Conditions: Lassa virus pseudotype entry inhibition, cell reporter; activity change, negative = inhibition: at 37.9 µM (top of the series) unless noted
On the % scale 0 is the no-effect control and ±100 the full control effect; potency means the concentration at half of the fitted maximal effect.

| SMILES | Potency | activity change, negative = inhibition |
| --- | --- | --- |
| COc1ccc(-c2nsc(SCC(=O)Nc3ccc4c(c3)OCO4)n2)cc1 | inconclusive: 32.6 µM [activator, partial curve, poor fit] |  |
| Cc1ccc(S(=O)(=O)CCC(=O)c2cccc([N+](=O)[O-])c2)cc1 | inconclusive: 35.5 µM [inhibitor, single point] |  |
| O=C(O)CC(NC(=O)OCc1ccccc1)c1ccc(Br)cc1 (stereo not given) | inconclusive: 20 µM [activator, single point] |  |
| CCOc1cc2c3c(c1)C1(C(=O)N3C(C)(C)C=C2C)C(C#N)=C(N)Oc2cc(O)ccc21 (stereo not given) | inconclusive: 20.6 µM [inhibitor, single point] |  |
| CSc1ncccc1C(=O)N1CCN(S(=O)(=O)c2cc(C)ccc2C)CC1 |  | inactive: -15.1% [at 46.1 µM] |
| CCCn1c(=NC(=O)CS(=O)(=O)c2ccccc2)sc2cc(S(C)(=O)=O)ccc21 |  | inactive: -16.3% |
| COc1ccc2cc(CN(CC3CCCO3)C(=S)Nc3ccccc3)c(=O)[nH]c2c1 (stereo not given) | inconclusive: 0.794 µM [inhibitor, single point] |  |
| CCOc1ccc2nc(C)cc(Nc3ccc(N4CCOCC4)cc3)c2c1 |  | inactive: -4.35% |
| Cc1ccc2nc(-c3ccc(NC(=O)COc4ccccc4)cc3)sc2c1 |  | inactive: 10% [at 46.1 µM] |
| Cc1ccc(C(=O)O/N=C(\N)c2cccc([N+](=O)[O-])c2)cc1 | inconclusive: 6.51 µM [activator, single point] |  |
| CCCCOc1ccc(N(CC(=O)NC(C)(C)CC)C(=O)CCC(=O)Nc2ccccn2)cc1 | inconclusive: 35.5 µM [inhibitor, partial curve, poor fit] |  |
| COc1ccccc1/C=C/C=N/NC(=O)c1ccncc1 |  | inactive: 0.946% [at 46.1 µM] |
| N#CC1=C(N)C(C#N)(C#N)[C@H](c2cccnc2)[C@H]2CN(C(=O)OCc3ccccc3)CC=C12 | inconclusive: 10.3 µM [inhibitor, partial curve] |  |
| CCOC(=O)C1C(=O)C=C(c2ccc([N+](=O)[O-])cc2)CC1c1ccccc1 (stereo not given) | inconclusive: 18.3 µM [inhibitor, partial curve, poor fit] |  |
| N#Cc1c(-c2ccc(Cl)cc2)n(O)c2ccccc12 | active: 12.6 µM |  |
| Nc1c(-c2cccc([N+](=O)[O-])c2)nc2ccccn12 | inconclusive: 1.26 µM [activator, single point] |  |
| Cc1cc(C)cc(-n2ncc3c2CCCC3NC(=O)c2csnn2)c1 (stereo not given) | inconclusive: 5.62 µM [activator, single point] |  |
| COc1cccc(-n2ccn(CC(=O)c3ccc(F)cc3)c(=O)c2=O)c1 |  | inactive: 4.56% [at 46.1 µM] |
| COCCNc1nc(-n2nc(C)cc2C)nc2sc3c(c12)CCCC3 | inconclusive: 35.5 µM [inhibitor, single point] |  |
| Cc1cc(C)nc(SCCn2c(N3CC(C)OC(C)C3)nc3c2c(=O)n(C)c(=O)n3C)n1 (stereo not given) | inconclusive: 1 µM [inhibitor, partial curve, poor fit] |  |
| COc1cc(NC(=S)Nc2cccnc2)cc(OC)c1 |  | inactive: 9.53% |
| O=C(O)CCSc1nnc(SCC(=O)NC2CCS(=O)(=O)C2)s1 (stereo not given) | inconclusive: 1.78 µM [activator, partial curve, poor fit] |  |

| SMILES | Potency | activity change, negative = inhibition |
| --- | --- | --- |
| O=C(COC(=O)c1ccc[nH]c1=O)NCCc1ccc(F)cc1 |  | inactive: 22% |
| CCOC(=O)c1c(NC(=O)C2COc3ccccc3O2)sc2c1CCN(Cc1ccccc1)C2 (stereo not given) | inconclusive: 32.6 µM [inhibitor, partial curve, poor fit] |  |
| Cc1ccc(NC(=O)C(=O)c2cc(C)n(-c3ccc(F)cc3)c2C)cc1C | inconclusive: 11.2 µM [activator, partial curve, poor fit] |  |
| CC(=O)Nc1ccc(-c2nnc(SCc3ccc(C)cc3)n2C)cc1 | inconclusive: 16.4 µM [inhibitor, partial curve, poor fit] |  |
| CCCCC(=O)NC(=S)NNC(=O)c1ccc(OC)cc1 | inconclusive: 25.1 µM [inhibitor, single point] |  |
| Cn1cnc(S(=O)(=O)N2CCC(C(=O)N3CCN(c4ccccc4F)CC3)CC2)c1 | inconclusive: 2.82 µM [inhibitor, partial curve, poor fit] |  |
| N#Cc1c(NC(=O)CSc2ncn[nH]2)sc2c1CCCC2 | active: 2.31 µM |  |
| OCC1CCCN(C(=S)Nc2ccc(Nc3ccccc3)cc2)C1 (stereo not given) | inconclusive: 14.1 µM [inhibitor, single point] |  |
| CN(C)C(=O)c1ccc2c(c1[N+](=O)[O-])C(=O)c1ccccc1C2=O | inconclusive: 35.5 µM [inhibitor, single point] |  |
| Cc1nn(-c2ccccc2)c2c1C1(C(=O)N(C)c3ccccc31)N(c1ccccc1)C(=O)N2 (stereo not given) | inconclusive: 20 µM [inhibitor, partial curve, poor fit] |  |
| CCCCCCC(=O)NNC(=O)CC(=O)Nc1ccccc1C(=O)O | inconclusive: 3.98 µM [activator, full curve, poor fit] |  |
| CCc1ccc(-c2ccc3nnc(SCC(=O)NCC4CCCO4)n3n2)cc1 (stereo not given) | inconclusive: 7.08 µM [inhibitor, partial curve, poor fit] |  |
| CCOc1ccc(C(=O)N2CCC(c3noc(-c4ccc(S(=O)(=O)N5CCCC5)cc4)n3)CC2)cc1 | inconclusive: 17.8 µM [inhibitor, single point] |  |
| O=C(CN1CCN(S(=O)(=O)/C=C/c2ccccc2)CC1)Nc1ccccc1N1CCOCC1 | inconclusive: 14.1 µM [inhibitor, single point] |  |
| Cc1ccc(OCCn2nnc3sc4c(c3c2=O)CCC(C)C4)cc1 (stereo not given) |  | inactive: -5.76% [at 46.1 µM] |
| COc1ccc(S(=O)(=O)N(C)CC(=O)Nc2c(F)cccc2F)cc1 | inconclusive: 0.411 µM [inhibitor, full curve, poor fit] |  |
| O=C(CSc1nnc(-c2ccc([N+](=O)[O-])cc2)o1)Nc1ccccc1 | inconclusive: 15.8 µM [activator, single point] |  |
| COc1ccc(CNC(=O)CN(C(=O)CCC(=O)Nc2ccccn2)c2cccc(C)c2C)cc1 | inconclusive: 4.47 µM [inhibitor, partial curve, poor fit] |  |
| Cc1cc(C)cc(NS(=O)(=O)c2ccc3[nH]cc(C(=O)NCc4ccccc4Cl)c(=O)c3c2)c1 | inconclusive: 35.5 µM [inhibitor, single point] |  |
| CC(C)(c1ccccc1)c1ccc(OCCCN2CCNCC2)cc1 | inconclusive: 7.08 µM [inhibitor, partial curve] |  |
| CCC(OC(=O)c1ccco1)C(=O)NC1CCCC1 (stereo not given) |  | inactive: 0.775% [at 46.1 µM] |
| COC(=O)c1ccc(Cn2nnc3c(=O)[nH]c(C4CCCN(S(=O)(=O)c5cccc(Cl)c5)C4)nc32)cc1 (stereo not given) | inconclusive: 3.55 µM [inhibitor, single point] |  |

Not a retest: four of the compounds above.

| SMILES | Potency | activity change, negative = inhibition |
| --- | --- | --- |
| COc1ccc(CNC(=O)CN(C(=O)CCC(=O)Nc2ccccn2)c2cccc(C)c2C)cc1 | inconclusive: 4.47 µM [inhibitor, partial curve, poor fit] |  |
| Cc1cc(C)cc(NS(=O)(=O)c2ccc3[nH]cc(C(=O)NCc4ccccc4Cl)c(=O)c3c2)c1 | inconclusive: 35.5 µM [inhibitor, single point] |  |
| CC(C)(c1ccccc1)c1ccc(OCCCN2CCNCC2)cc1 | inconclusive: 7.08 µM [inhibitor, partial curve] |  |
| CCC(OC(=O)c1ccco1)C(=O)NC1CCCC1 (stereo not given) |  | inactive: 0.775% [at 46.1 µM] |

Remaining list, next part

| SMILES | Potency | activity change, negative = inhibition |
| --- | --- | --- |
| O=C(C=C1SCCS1)/C=C/c1ccco1 | active: 11.2 µM |  |
| CCOCCCNC(=S)NNC(=O)CCn1nc(C)c(Br)c1C |  | inactive: 10.6% |
| O=C(COC(=O)c1cccnc1Cl)c1ccccc1 |  | inactive: 20.5% |
| CCNC(=O)COC(=O)c1cc(-c2ccc(OC)cc2)nc2ccccc12 | inconclusive: 11.6 µM [inhibitor, partial curve, poor fit] |  |
| O=C(CN1C(=O)COc2ccc(S(=O)(=O)Nc3ccccc3)cc21)Nc1cccc(Cl)c1 |  | inactive: -9.64% [at 46.1 µM] |
| CCCC(=O)NC(=S)Nc1cccc(Cl)c1N1CCCC1 | inconclusive: 35.5 µM [inhibitor, single point] |  |
| O=C(OCc1cccc([N+](=O)[O-])c1)c1cc2ccccc2oc1=O | inconclusive: 35.5 µM [activator, single point] |  |
| Cc1cnc(C(=O)Nc2ccc(F)cc2)cn1 | inconclusive: 6.51 µM [activator, partial curve, poor fit] |  |
| CC1CCCN(c2ccc(C(=O)Nc3ccc4c(c3)OCO4)cc2[N+](=O)[O-])C1 (stereo not given) | inconclusive: 17.8 µM [inhibitor, single point] |  |
| CSc1nc2ccc(NC(=O)c3ccc(=O)[nH]c3)cc2s1 |  | inactive: -20.7% [at 46.1 µM] |
| COc1ccc(NS(=O)(=O)c2ccc(N3CCOCC3)c(NC(=O)c3ccc(F)cc3)c2)cc1 | inconclusive: 14.1 µM [inhibitor, single point] |  |
| COc1ccc(-c2csc(NC(=O)CSc3nnc(Nc4ccccc4C)s3)n2)cc1 | inconclusive: 8.2 µM [inhibitor, partial curve] |  |
| O=C(C1CC1)N1CCN(c2ccc([N+](=O)[O-])cc2-n2cccc2)CC1 | inconclusive: 10 µM [inhibitor, partial curve, poor fit] |  |
| Cc1cccc(-c2nsc(SCC(=O)N3CCCC3)n2)c1 | inconclusive: 2.31 µM [activator, partial curve] |  |
| NS(=O)(=O)c1ccc(CCNC(c2ccccc2)c2ccccc2)cc1 |  | inactive: -20.2% |
| Cc1ccc(CN2CCN(Cc3ccncc3)CC2CCO)o1 (stereo not given) |  | inactive: 20.3% [at 46.1 µM] |
| CNc1ccc2oc(C[C@H]3O[C@@]4(CC[C@H]3C)O[C@H]([C@H](C)C(=O)c3ccc[nH]3)[C@H](C)C[C@H]4C)nc2c1C(=O)O | active: 0.231 µM |  |
| COc1ccc(CCNC(=O)CCc2c(C)c3cc4c(C)coc4c(C)c3oc2=O)cc1OC | inconclusive: 12.6 µM [activator, partial curve, poor fit] |  |
| CCN1CCN(S(=O)(=O)c2ccc(Cl)c(C(=O)Nc3ccccc3N3CCCCC3)c2)CC1 | inconclusive: 12.6 µM [inhibitor, partial curve, poor fit] |  |
| CCOC(=O)c1ccc(NC(=O)c2ccc(=O)n(Cc3cccc(C)c3)c2)cc1 | inconclusive: 12.6 µM [inhibitor, single point] |  |
| CC(/C=N/NC(=O)Cc1cccs1)=C\c1ccccc1 |  | inactive: 15.2% |
